Here are results for 42 sequences from publication PMC7819943, “Rice protein-binding microarrays: a tool to detect cis-acting elements near promoter regions in rice”.

The chains behind the UniProt entries cited, without tags or fusion partners.
UniProt Q0JBA9, entry or part of it: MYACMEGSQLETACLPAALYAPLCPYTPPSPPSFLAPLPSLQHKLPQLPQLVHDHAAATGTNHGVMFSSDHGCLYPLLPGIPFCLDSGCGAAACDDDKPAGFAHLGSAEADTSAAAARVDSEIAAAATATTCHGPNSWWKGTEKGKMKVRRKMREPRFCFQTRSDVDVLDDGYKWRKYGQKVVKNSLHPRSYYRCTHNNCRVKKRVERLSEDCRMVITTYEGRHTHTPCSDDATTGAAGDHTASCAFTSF

The list shows a part of the results.

The assay has as its target OsWRKY34 (Oryza sativa, UniProt Q0JBA9 1-250). Kind of assay: protein-binding microarray (RPBM); PBS, 2% BSA, 51.3 ng/ul salmon testes DNA, 50 uM zinc acetate, 200 nM TF, 25 C, 1 h; high values mean tight binding. The settings on record: protein: recombinant; tags: N-terminal polyhistidine and DsRed monomer fusion (pET32a); label: CyDye5-dUTP incorporated in the synthesized complementary strand; 3' TTTTT single-stranded linker to array surface; dsDNA, one strand shown. An outline of the steps:
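In PBS with 2% BSA, salmon testes DNA and 50 µM zinc acetate, 200 nM protein was incubated on a custom Agilent array at 25 °C for 1 h and then washed off. The array had been made double-stranded by primer extension with Cy5-dUTP and blocked with 2% BSA. The proteins were transcription factors fused N-terminally to polyhistidine and DsRed, expressed in E. coli BL21-CodonPlus and purified on Ni–NTA. The binding signal is per-feature fluorescence intensity (arbitrary units) from an Axon 4000B scanner.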
For “TGTTTTTTTTCGCTTTTCTTATTTAAACGGTATTTTTTTCCGGAGTCACCTAGTGCAG”, the binding signal was 11100 fluorescence intensity (a.u.).
Turning to “CCATCTCCCGTCTCTCCGCCGCGCGCCGCCTCGTTGCTTTCGGAGTCACCTAGTGCAG”, the binding signal is 9580 fluorescence intensity (a.u.).
Then “TAATGTTGCCATGCTTTACTTAACTATAGTTTCGAAATTTCGGAGTCACCTAGTGCAG”, with 8570 fluorescence intensity (a.u.).
As for “TATTTCTCTCGCCACAATCTCTGGCGGCGCCACAATCTTACGGAGTCACCTAGTGCAG”, the binding signal was 8850 fluorescence intensity (a.u.).
Then “TCGGCGGCGAGGTGGTGGCGGTGGCGGTGGTGGGAGTAGTCGGAGTCACCTAGTGCAG”, with 15200 fluorescence intensity (a.u.); and “CTTGCTTACAGAGTTCCAGTTTCTCGTATTTCTGGTTTCTCGGAGTCACCTAGTGCAG”, with 8780 fluorescence intensity (a.u.); and “GTGCCGGCGCCCGACGACGTCGCCCTCATCCGCGGCATCCCGGAGTCACCTAGTGCAG”, with 8050 fluorescence intensity (a.u.).
For the sequence “ATAACCCGCACCACCTCATCCGCCGCATCGATCCTCCCTCCGGAGTCACCTAGTGCAG”, the binding signal is 8930 fluorescence intensity (a.u.).
Regarding “TGTGTGTTCTTGTTTCTCTTGTTAATTTCTTGAGATCCTGCGGAGTCACCTAGTGCAG”, the binding signal is 9690 fluorescence intensity (a.u.).
As to “TCTCTCACCTTTTCTTCACTTTATGGGCATCATTTTCAGACGGAGTCACCTAGTGCAG”, the binding signal is 8780 fluorescence intensity (a.u.).
As to “TTGCCATTGAAACAAAGTGTTCTGTTCTGGTGGATGCTTTCGGAGTCACCTAGTGCAG”, the binding signal was 8680 fluorescence intensity (a.u.).
On to “TCGTTGACTTTTTTCTTAGTCAAATTTCTTTAAGTTTGACCGGAGTCACCTAGTGCAG”, for which the binding signal is 42400 fluorescence intensity (a.u.).
“AAGTTCCTTCTTATTTCTAAGTTCAGTCGTATCCTCTTAACGGAGTCACCTAGTGCAG”: the binding signal is 8720 fluorescence intensity (a.u.).
As for “TCCTTTCCTACATGTCGCCTTTGCCGTCGCCTCAACCACACGGAGTCACCTAGTGCAG”, the binding signal is 14200 fluorescence intensity (a.u.).
“GCTTTATTTCTCTCTTGCTTTCTTTTCATCCCCAACCAGTCGGAGTCACCTAGTGCAG”: the binding signal was 8550 fluorescence intensity (a.u.).
“ACTATACCTTTTTTTTAAGTCATTTAGTTTTTGCCAAAATCGGAGTCACCTAGTGCAG”: the binding signal was 8030 fluorescence intensity (a.u.).
As to “GTATTGTGTGATGTCCACTGGAGTATAGCTGGGTGGGGTACGGAGTCACCTAGTGCAG”, the binding signal was 11300 fluorescence intensity (a.u.).
As to “GACTTTTTTTTAAATTTTTTTTCGCTATATTTTTTGACGGCGGAGTCACCTAGTGCAG”, the binding signal is 8320 fluorescence intensity (a.u.).
In the case of “GATTGTGATGGTCCGTTTTCACTTTTTTAGTCATCTACAACGGAGTCACCTAGTGCAG”, the binding signal is 10900 fluorescence intensity (a.u.).
For “GCCTCTCAGATATGTTCTTTGTTTGATTTATTTTTCTAATCGGAGTCACCTAGTGCAG”, the binding signal is 8030 fluorescence intensity (a.u.).
On to “TCTCCCCATCCATCCTCACCCGCGCTGCCCATCACTCGCCCGGAGTCACCTAGTGCAG”, for which the binding signal is 8240 fluorescence intensity (a.u.).
For “AAATACCACTACTATTCGTCGTATCGGCTACATGCCACTGCGGAGTCACCTAGTGCAG”, the binding signal was 8160 fluorescence intensity (a.u.).
Turning to “TTATATAAGCACGCTGCCTTCGCCATCTCCATTTCCACAACGGAGTCACCTAGTGCAG”, the binding signal was 8840 fluorescence intensity (a.u.).
“GTCTCACTCTCCCAATCCGCCTCGGCCCGAGCGCGCGCGCCGGAGTCACCTAGTGCAG”: the binding signal was 9530 fluorescence intensity (a.u.).
For “GGTCAGGATATCTGGTTTTGTAGTTTAAGGCCACGGATTACGGAGTCACCTAGTGCAG”, the binding signal was 9010 fluorescence intensity (a.u.).
In the case of “ATCCTCGGTAACTCTTCTTCGCGGCTATCGTGTTGGTCTCCGGAGTCACCTAGTGCAG”, the binding signal is 11200 fluorescence intensity (a.u.).
“CCTGATCCTGCTGTATTAAGACATACGAGGCAAAGCTTTTCGGAGTCACCTAGTGCAG”: the binding signal is 9670 fluorescence intensity (a.u.).
Then “GTTTTGACTTTGGTCAAAGTCAAACTAATTCAAGTTAGACCGGAGTCACCTAGTGCAG”, with 17600 fluorescence intensity (a.u.).
Turning to “GACCAGCGAACTGCAAGCAATCCCAGCCATTCTTTCATTCCGGAGTCACCTAGTGCAG”, the binding signal is 10400 fluorescence intensity (a.u.).
With “ATATGTATTAGTGTGTATGTGTTAAGGGGTATTTCTGTCTCGGAGTCACCTAGTGCAG”, the binding signal was 10700 fluorescence intensity (a.u.).
As for “GTTGTTCTTATGGTCTTGCTTTGTTCCTTTCCATTTGGTCCGGAGTCACCTAGTGCAG”, the binding signal was 13000 fluorescence intensity (a.u.).
Regarding “GAGGGAGGGAGGGAGGGAGGGCGTGTAGCGTAGTTGGTGTCGGAGTCACCTAGTGCAG”, the binding signal is 18800 fluorescence intensity (a.u.).
As to “TCACGGCCCACTTCTCTTCGTCGGCCCAGTATCGTCCCTTCGGAGTCACCTAGTGCAG”, the binding signal was 8760 fluorescence intensity (a.u.).
In the case of “AAAATACCGACATAATATTTGGATACACATCTATCTAGATCGGAGTCACCTAGTGCAG”, the binding signal is 8800 fluorescence intensity (a.u.).
Then “GGGCTGGTTTGGCTTGGCTGTTACAAAGACAAAGAATGACCGGAGTCACCTAGTGCAG”, with 16800 fluorescence intensity (a.u.); and “GATACATAGAGTCATGCACCTACGACTCCACCACCACAACCGGAGTCACCTAGTGCAG”, with 11600 fluorescence intensity (a.u.).
As for “GGTGGGAGGGATCTAGGAAGGCTAGGGCAAGCGTCGATCTCGGAGTCACCTAGTGCAG”, the binding signal was 8110 fluorescence intensity (a.u.).
Take “TGACCTCCGTTTTAGTCCACACTCTCTCGCAGCGGCGGAGCGGAGTCACCTAGTGCAG”: the binding signal was 9080 fluorescence intensity (a.u.).
As for “GAGCACCACCTCCATAAACCCGGTCCACCCTGAACTCCACCGGAGTCACCTAGTGCAG”, the binding signal was 9750 fluorescence intensity (a.u.).
Then “CCTGTATTCGGCACCCATTTTCCTAACATTTCTCTCGTTTCGGAGTCACCTAGTGCAG”, with 8970 fluorescence intensity (a.u.); and “CATGAGATGAGAGGCCTTTGATTGTTCAGTCATATTATTTCGGAGTCACCTAGTGCAG”, with 9510 fluorescence intensity (a.u.); and “ATTCTGTTTTCTACTATTCGCTAGTATACTGCTACTAGTTCGGAGTCACCTAGTGCAG”, with 11500 fluorescence intensity (a.u.).
